Source: PubChem BioAssay AID504774 (Drosophila RNAi Screening Center, 2011)
The deposit covers about 23,000 reagents; this is an unselected part of those that have a named target and a result. 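Values are quantile-normalised luminescence on an arbitrary scale; higher means more cells surviving MMS.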 Further read-outs or replicates are left out here.

Assay: 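Fly genes whose loss alters survival after alkylation damage to DNA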 (primary screen)
Cell system: Drosophila Kc167 cells
Reagent: long dsRNA against Drosophila genes, about 0.25 µg dsRNA per well
Time to read-out: about 6 days: 3 days knock-down, then 3 days with or without MMS
Challenge: methyl methanesulphonate 0.004% (w/v) for 3 days after knock-down
Detection: 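ATP-dependent luminescence as a measure of live cells in MMS-exposed wells, quantile normalised within each plate, with replicate values also given as a mean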
Reading the numbers: mean viability with MMS and viability with MMS: higher = more surviving cells after MMS

gene knocked down | dsRNA | mean viability with MMS | viability with MMS, replicate 1
Osi4 | DRSC12134 | 3.51e6 | 4.00e6
CG2247 | DRSC19844 | 3.59e6 | 3.98e6
Atg10 | DRSC06172 | 3.52e6 | 4.04e6
RagA-B | DRSC14450 | 3.36e6 | 3.81e6
Mbs | DRSC09414 | 3.42e6 | 3.94e6
Mbs | DRSC10525 | 3.63e6 | 4.02e6
Mbs | DRSC10553 | 3.55e6 | 3.88e6
CG33303 | DRSC02848 | 3.89e6 | 3.87e6
CG33752 | DRSC05351 | 3.52e6 | 3.93e6
Roc1a | DRSC18483 | 3.22e6 | 3.70e6
msd1 | DRSC08383 | 3.44e6 | 3.96e6
Vps33B | DRSC15722 | 3.43e6 | 3.90e6
CG5181 | DRSC02825 | 3.66e6 | 4.22e6
CR42785 | DRSC04962 | 3.80e6 | 4.49e6
scb | DRSC05542 | 3.45e6 | 3.96e6
scb | DRSC07678 | 3.46e6 | 4.07e6
Mhc | DRSC03367 | 3.30e6 | 3.72e6

3 consecutive records from above, quoted:
gene knocked down | dsRNA | mean viability with MMS | viability with MMS, replicate 1
CG33303 | DRSC02848 | 3.89e6 | 3.87e6
CG33752 | DRSC05351 | 3.52e6 | 3.93e6
Roc1a | DRSC18483 | 3.22e6 | 3.70e6

The listing continues:
gene knocked down | dsRNA | mean viability with MMS | viability with MMS, replicate 1
CG5913 | DRSC15916 | 3.61e6 | 4.03e6
PH4alphaNE1 | DRSC16546 | 3.45e6 | 3.89e6
Myo10A | DRSC19834 | 3.63e6 | 4.11e6
Myo10A | DRSC19837 | 3.62e6 | 4.22e6
CG7194 | DRSC10784 | 3.61e6 | 4.07e6
kud | DRSC11086 | 3.54e6 | 4.01e6
Dlish | DRSC06016 | 3.58e6 | 4.20e6
bin3 | DRSC04919 | 3.30e6 | 3.71e6
Bet5 | DRSC14600 | 3.79e6 | 4.14e6
CG9962 | DRSC00739 | 3.47e6 | 3.92e6
Mic26-27 | DRSC15913 | 3.78e6 | 4.23e6
Sym | DRSC12301 | 3.48e6 | 3.92e6
CG7530 | DRSC16255 | 3.65e6 | 4.12e6
CG33252 | DRSC19162 | 3.50e6 | 4.01e6
CG10384 | DRSC03933 | 3.54e6 | 4.02e6
CG10384 | DRSC04067 | 3.04e6 | 3.51e6
CG10031 | DRSC00286 | 3.77e6 | 4.17e6
CG10628 | DRSC02080 | 3.47e6 | 3.97e6
CG32379 | DRSC10318 | 3.49e6 | 3.91e6
Idua | DRSC02941 | 3.51e6 | 4.02e6
Rhau | DRSC03200 | 3.41e6 | 3.74e6
Lamtor1 | DRSC10183 | 3.55e6 | 4.01e6
CG16743 | DRSC02514 | 3.77e6 | 4.31e6
muc | DRSC02832 | 3.76e6 | 4.13e6
muc | DRSC21940 | 3.46e6 | 3.97e6
CG15084 | DRSC06515 | 3.63e6 | 4.16e6
CG15084 | DRSC21403 | 3.48e6 | 4.04e6
CG7519 | DRSC11834 | 3.55e6 | 4.10e6
Jon66Ci | DRSC10772 | 3.69e6 | 4.14e6
